Results are given in words; binding and its absence hold for the method and conditions named. Binding seen in cells or lysates may run through a third protein. Some entries that bind do so weakly or less than the wild type. For some assays here: Tags and fused reporters may be left off the sequences shown.
Columns and labels:
[1] = biological target: STING, overexpressed (Supplementary Figs 6a and 9c), Q86WV6; experiment: co-IP; association of TBK1 with STING or MAVS, with overexpression of USP13 (Supplementary Fig. 9c; legend not shown); conditions: remark: other sources report otherwise
[2] = biological target: STING, endogenous in THP-1 cells (human (endogenous in THP-1)), Q86WV6; experiment: co-IP; endogenous proteins; IP with anti-STING, blot with anti-TBK1; THP-1 cells stably transfected with shUSP13 or shCon, HSV-1 0-12 h; Usp13+/+ and Usp13m/m BMDCs, HSV-1 0-10 h; conditions: remark: other sources report otherwise
[3] = biological target: HA-STING (UniProt Q86WV6); experiment: co-IP; HEK293 cells transfected 24 h with HA-STING (or STING truncates) and FLAG-tagged USP13 (or USP13 truncates); IP with anti-HA, blot with anti-FLAG or anti-HA
[4] = biological target: T1, STING, endogenous in mouse BMDCs and MEFs (mouse (endogenous in BMDCs and MEFs)) (UniProt Q3TBT3); experiment: co-IP; endogenous proteins; IP with anti-STING, blot with anti-USP13; mouse BMDCs and MEFs after HSV-1 infection
T1 sequence: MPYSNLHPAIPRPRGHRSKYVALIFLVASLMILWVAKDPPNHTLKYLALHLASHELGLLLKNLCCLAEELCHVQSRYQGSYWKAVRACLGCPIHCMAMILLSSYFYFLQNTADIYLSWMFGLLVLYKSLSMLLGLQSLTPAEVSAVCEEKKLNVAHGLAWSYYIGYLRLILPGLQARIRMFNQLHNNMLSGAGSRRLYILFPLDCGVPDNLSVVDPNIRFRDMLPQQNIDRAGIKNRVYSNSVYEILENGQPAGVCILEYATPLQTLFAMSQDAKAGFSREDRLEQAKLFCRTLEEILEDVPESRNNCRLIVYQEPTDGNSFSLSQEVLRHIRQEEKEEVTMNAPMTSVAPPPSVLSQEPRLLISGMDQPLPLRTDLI

Sequences of proteins named here, by UniProt entry; tags and fusion partners are left off.
UniProt Q86WV6: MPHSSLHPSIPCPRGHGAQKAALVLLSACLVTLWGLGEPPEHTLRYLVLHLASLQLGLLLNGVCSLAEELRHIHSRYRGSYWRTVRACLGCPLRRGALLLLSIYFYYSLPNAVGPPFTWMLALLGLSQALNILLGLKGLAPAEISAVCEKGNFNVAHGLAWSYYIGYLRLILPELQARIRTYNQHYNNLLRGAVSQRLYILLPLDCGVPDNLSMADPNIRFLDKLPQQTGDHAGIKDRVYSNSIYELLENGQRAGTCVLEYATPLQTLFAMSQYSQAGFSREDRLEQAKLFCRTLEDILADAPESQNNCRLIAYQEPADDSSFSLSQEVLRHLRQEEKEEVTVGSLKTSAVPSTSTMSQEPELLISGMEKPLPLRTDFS
UniProt Q8N884: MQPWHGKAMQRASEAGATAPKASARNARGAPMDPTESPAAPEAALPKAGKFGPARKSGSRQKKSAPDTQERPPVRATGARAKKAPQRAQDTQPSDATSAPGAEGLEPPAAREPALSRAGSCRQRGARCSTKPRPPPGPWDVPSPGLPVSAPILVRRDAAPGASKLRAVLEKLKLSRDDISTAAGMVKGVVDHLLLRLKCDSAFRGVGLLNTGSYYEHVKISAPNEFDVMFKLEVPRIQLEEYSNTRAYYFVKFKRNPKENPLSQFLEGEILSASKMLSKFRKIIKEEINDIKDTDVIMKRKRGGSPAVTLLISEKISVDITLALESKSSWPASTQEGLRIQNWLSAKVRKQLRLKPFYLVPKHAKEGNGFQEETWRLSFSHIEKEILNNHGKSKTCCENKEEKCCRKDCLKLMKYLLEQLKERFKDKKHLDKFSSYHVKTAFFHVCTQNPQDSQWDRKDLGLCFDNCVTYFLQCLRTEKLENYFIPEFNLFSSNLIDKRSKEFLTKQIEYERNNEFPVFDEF

[5] = biological target: T1, STING, endogenous in mouse BMDCs and MEFs (mouse (endogenous in BMDCs and MEFs)); experiment: co-IP; endogenous proteins; IP with anti-STING (IgG as control), blot with anti-STING or anti-USP13; mouse BMDCs and MEFs without viral infection
[6] = biological target: T2, IRF3 (UniProt Q14653); experiment: co-IP; overexpression system, coexpressed in HEK293 cells (Supplementary Fig. 6b,c; legend not shown)
T2 sequence: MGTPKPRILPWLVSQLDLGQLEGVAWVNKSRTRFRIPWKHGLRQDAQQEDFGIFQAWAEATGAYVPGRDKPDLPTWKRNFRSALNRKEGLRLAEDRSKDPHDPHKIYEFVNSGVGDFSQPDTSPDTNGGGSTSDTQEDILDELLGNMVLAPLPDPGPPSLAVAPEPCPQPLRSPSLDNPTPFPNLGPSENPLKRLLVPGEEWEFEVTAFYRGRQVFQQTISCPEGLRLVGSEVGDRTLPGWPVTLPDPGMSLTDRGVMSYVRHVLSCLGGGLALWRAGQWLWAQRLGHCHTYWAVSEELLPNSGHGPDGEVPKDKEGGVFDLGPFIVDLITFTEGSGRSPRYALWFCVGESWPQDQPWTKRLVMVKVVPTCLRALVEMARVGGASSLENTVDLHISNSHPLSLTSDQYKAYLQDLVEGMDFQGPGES

[7] = biological target: cyclic GMP-AMP synthase (cGAS) (UniProt Q8N884); experiment: as above

B1: TBK1 (Supplementary Fig. 9c), Q9UHD2 1-729 (enzyme)
chain: MQSTSNHLWLLSDILGQGATANVFRGRHKKTGDLFAIKVFNNISFLRPVDVQMREFEVLKKLNHKNIVKLFAIEEETTTRHKVLIMEFCPCGSLYTVLEEPSNAYGLPESEFLIVLRDVVGGMNHLRENGIVHRDIKPGNIMRVIGEDGQSVYKLTDFGAARELEDDEQFVSLYGTEEYLHPDMYERAVLRKDHQKKYGATVDLWSIGVTFYHAATGSLPFRPFEGPRRNKEVMYKIITGKPSGAISGVQKAENGPIDWSGDMPVSCSLSRGLQVLLTPVLANILEADQEKCWGFDQFFAETSDILHRMVIHVFSLQQMTAHKIYIHSYNTATIFHELVYKQTKIISSNQELIYEGRRLVLEPGRLAQHFPKTTEENPIFVVSREPLNTIGLIYEKISLPKVHPRYDLDGDASMAKAITGVVCYACRIASTLLLYQELMRKGIRWLIELIKDDYNETVHKKTEVVITLDFCIRNIEKTVKVYEKLMKINLEAAELGEISDIHTKLLRLSSSQGTIETSLQDIDSRLSPGGSLADAWAHQEGTHPKDRNVEKLQVLLNCMTEIYYQFKKDKAERRLAYNEEQIHKFDKQKLYYHATKAMTHFTDECVKKYEAFLNKSEEWIRKMLHLRKQLLSLTNQCFDIEEEVSKYQEYTNELQETLPQKMFTASSGIKHTMTPIYPSSNTLVEMTLGMKKLKEEMEGVVKELAENNHILERFGSLTMDGGLRNVDCL
[1]
  binding: binds

B2: TBK1, endogenous in THP-1 cells, Q9UHD2 1-729 (enzyme)
chain: MQSTSNHLWLLSDILGQGATANVFRGRHKKTGDLFAIKVFNNISFLRPVDVQMREFEVLKKLNHKNIVKLFAIEEETTTRHKVLIMEFCPCGSLYTVLEEPSNAYGLPESEFLIVLRDVVGGMNHLRENGIVHRDIKPGNIMRVIGEDGQSVYKLTDFGAARELEDDEQFVSLYGTEEYLHPDMYERAVLRKDHQKKYGATVDLWSIGVTFYHAATGSLPFRPFEGPRRNKEVMYKIITGKPSGAISGVQKAENGPIDWSGDMPVSCSLSRGLQVLLTPVLANILEADQEKCWGFDQFFAETSDILHRMVIHVFSLQQMTAHKIYIHSYNTATIFHELVYKQTKIISSNQELIYEGRRLVLEPGRLAQHFPKTTEENPIFVVSREPLNTIGLIYEKISLPKVHPRYDLDGDASMAKAITGVVCYACRIASTLLLYQELMRKGIRWLIELIKDDYNETVHKKTEVVITLDFCIRNIEKTVKVYEKLMKINLEAAELGEISDIHTKLLRLSSSQGTIETSLQDIDSRLSPGGSLADAWAHQEGTHPKDRNVEKLQVLLNCMTEIYYQFKKDKAERRLAYNEEQIHKFDKQKLYYHATKAMTHFTDECVKKYEAFLNKSEEWIRKMLHLRKQLLSLTNQCFDIEEEVSKYQEYTNELQETLPQKMFTASSGIKHTMTPIYPSSNTLVEMTLGMKKLKEEMEGVVKELAENNHILERFGSLTMDGGLRNVDCL
[2]
  binding: binds

B3: FLAG-tagged USP13 truncate, N-terminal domain (aa1-624) (domain or fragment, UniProt Q92995 1-624)
chain: MQRRGALFGMPGGSGGRKMAAGDIGELLVPHMPTIRVPRSGDRVYKNECAFSYDSPNSEGGLYVCMNTFLAFGREHVERHFRKTGQSVYMHLKRHVREKVRGASGGALPKRRNSKIFLDLDTDDDLNSDDYEYEDEAKLVIFPDHYEIALPNIEELPALVTIACDAVLSSKSPYRKQDPDTWENELPVSKYANNLTQLDNGVRIPPSGWKCARCDLRENLWLNLTDGSVLCGKWFFDSSGGNGHALEHYRDMGYPLAVKLGTITPDGADVYSFQEEEPVLDPHLAKHLAHFGIDMLHMHGTENGLQDNDIKLRVSEWEVIQESGTKLKPMYGPGYTGLKNLGNSCYLSSVMQAIFSIPEFQRAYVGNLPRIFDYSPLDPTQDFNTQMTKLGHGLLSGQYSKPPVKSELIEQVMKEEHKPQQNGISPRMFKAFVSKSHPEFSSNRQQDAQEFFLHLVNLVERNRIGSENPSDVFRFLVEERIQCCQTRKVRYTERVDYLMQLPVAMEAATNKDELIAYELTRREAEANRRPLPELVRAKIPFSACLQAFSEPENVDDFWSSALQAKSAGVKTSRFASFPEYLVVQIKKFTFGLDWVPKKFDVSIDMPDLLDINHLRARGLQPGEE
[3]
  binding: binds

B4: FLAG-tagged USP13 truncate, C-terminal domain (aa625-863) (domain or fragment, UniProt Q92995 625-863)
chain: ELPDISPPIVIPDDSKDRLMNQLIDPSDIDESSVMQLAEMGFPLEACRKAVYFTGNMGAEVAFNWIIVHMEEPDFAEPLTMPGYGGAASAGASVFGASGLDNQPPEEIVAIITSMGFQRNQAIQALRATNNNLERALDWIFSHPEFEEDSDFVIEMENNANANIISEAKPEGPRVKDGSGTYELFAFISHMGTSTMSGHYICHIKKEGRWVIYNDHKVCASERPPKDLGYMYFYRRIPS
[3]
  binding: binds

B5: USP13, endogenous in mouse BMDCs and MEFs (enzyme, UniProt Q5BKP2 1-858)
chain: MQRRGALFSVPGGGGKMAAGDLGELLVPHMPTIRVPRSGDRVYKNECAFSYDSPNSEGGLYVCMNTFLAFGREHVERHFRKTGQSVYMHLKRHMREKVRGASGGALPKRRNSKIFLDLDMDDDLNSDDYEYEDEAKLVIFPDHYEIALPNIEELPALVTIACDAVLSSKSPYRKQDPDTWENEVPVSKYANNLVQLDNGVRIPPSGWKCARCDLRENLWLNLTDGSVLCGKWFFDSSGGNGHALEHYRDMGYPLAVKLGTITPDGADVYSFQEEGPVSDPHLAKHLAHFGIDMLHTQGTENGLRDNDIKPRVSEWEVIQESGTKLKPMYGPGYTGLKNLGNSCYLSSVMQAIFSIPEFQRAYVGNLPRIFDYSPLDPTQDFNTQMTKLGHGLLSGQYSKPPVKSELIEQVMKEEHKPQQNGISPRMFKAFVSKSHPEFSSNRQQDAQEFFLHLVNLVERNRIGSENPSDVFRFLVEERIQCCQTRKVRYTERVDYLMQLPVAMEAATNKDELITYELMRREAEANRRPLPELVRAKIPFSACLQAFAEPDNVDDFWSSALQAKSAGVKTSRFASFPEYLVVQIKKFTFGLDWVPRKFDVSIDMPDLLDISHLRARGLQPGEEELPDISPPIVIPDDSKDRLMNQLIDPSDIDESSVMQLAEMGFPLEACRKAVYFTGNTGAEVAFNWIIVHMEEPDFAEPLAIPGYGGAGASVFGATGLDNQPPEEIVAIITSMGFQRNQAVQALQATNHNLERALDWIFSHPEFEEDSDFVIEMENNANANIVSEAKPEGPRVKDGSGMYELFAFISHMGTSTMSGHYVCHIKKEGRWVIYNDHKVCASERPPKDLGYMYFYRRIPS
[4]
  binding: binds weakly
[5]
  binding: binds

B6: USP13, overexpressed (Supplementary Figs 6 and 9c) (enzyme, UniProt Q92995 1-863)
chain: MQRRGALFGMPGGSGGRKMAAGDIGELLVPHMPTIRVPRSGDRVYKNECAFSYDSPNSEGGLYVCMNTFLAFGREHVERHFRKTGQSVYMHLKRHVREKVRGASGGALPKRRNSKIFLDLDTDDDLNSDDYEYEDEAKLVIFPDHYEIALPNIEELPALVTIACDAVLSSKSPYRKQDPDTWENELPVSKYANNLTQLDNGVRIPPSGWKCARCDLRENLWLNLTDGSVLCGKWFFDSSGGNGHALEHYRDMGYPLAVKLGTITPDGADVYSFQEEEPVLDPHLAKHLAHFGIDMLHMHGTENGLQDNDIKLRVSEWEVIQESGTKLKPMYGPGYTGLKNLGNSCYLSSVMQAIFSIPEFQRAYVGNLPRIFDYSPLDPTQDFNTQMTKLGHGLLSGQYSKPPVKSELIEQVMKEEHKPQQNGISPRMFKAFVSKSHPEFSSNRQQDAQEFFLHLVNLVERNRIGSENPSDVFRFLVEERIQCCQTRKVRYTERVDYLMQLPVAMEAATNKDELIAYELTRREAEANRRPLPELVRAKIPFSACLQAFSEPENVDDFWSSALQAKSAGVKTSRFASFPEYLVVQIKKFTFGLDWVPKKFDVSIDMPDLLDINHLRARGLQPGEEELPDISPPIVIPDDSKDRLMNQLIDPSDIDESSVMQLAEMGFPLEACRKAVYFTGNMGAEVAFNWIIVHMEEPDFAEPLTMPGYGGAASAGASVFGASGLDNQPPEEIVAIITSMGFQRNQAIQALRATNNNLERALDWIFSHPEFEEDSDFVIEMENNANANIISEAKPEGPRVKDGSGTYELFAFISHMGTSTMSGHYICHIKKEGRWVIYNDHKVCASERPPKDLGYMYFYRRIPS
[6]
  binding: binds
[7]
  binding: binds
